This is an account of results in PMC9513230, “Inhibition of Plasmodium falciparum Hsp70-Hop partnership by 2-phenylthynesulfonamide” (Frontiers in Molecular Biosciences, 2022).

By UniProt entry, the sequences of proteins in these tests, tags left out. Residues count along the entry.
UniProt P02769, residues 25-607: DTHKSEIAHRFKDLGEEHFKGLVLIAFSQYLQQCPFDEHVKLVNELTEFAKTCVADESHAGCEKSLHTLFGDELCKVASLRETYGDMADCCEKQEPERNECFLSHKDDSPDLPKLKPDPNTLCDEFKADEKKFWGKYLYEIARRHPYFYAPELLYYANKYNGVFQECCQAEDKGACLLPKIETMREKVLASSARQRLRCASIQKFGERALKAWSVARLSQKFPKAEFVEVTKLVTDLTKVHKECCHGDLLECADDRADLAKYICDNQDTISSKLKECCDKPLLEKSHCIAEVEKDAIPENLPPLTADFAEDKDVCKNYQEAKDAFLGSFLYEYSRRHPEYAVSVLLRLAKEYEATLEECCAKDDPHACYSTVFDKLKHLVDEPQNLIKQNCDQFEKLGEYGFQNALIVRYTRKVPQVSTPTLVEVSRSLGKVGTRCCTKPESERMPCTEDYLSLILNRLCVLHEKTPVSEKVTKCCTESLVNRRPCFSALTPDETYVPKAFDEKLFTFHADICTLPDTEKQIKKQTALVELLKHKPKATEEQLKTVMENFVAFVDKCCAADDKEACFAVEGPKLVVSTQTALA
UniProt Q8IB24: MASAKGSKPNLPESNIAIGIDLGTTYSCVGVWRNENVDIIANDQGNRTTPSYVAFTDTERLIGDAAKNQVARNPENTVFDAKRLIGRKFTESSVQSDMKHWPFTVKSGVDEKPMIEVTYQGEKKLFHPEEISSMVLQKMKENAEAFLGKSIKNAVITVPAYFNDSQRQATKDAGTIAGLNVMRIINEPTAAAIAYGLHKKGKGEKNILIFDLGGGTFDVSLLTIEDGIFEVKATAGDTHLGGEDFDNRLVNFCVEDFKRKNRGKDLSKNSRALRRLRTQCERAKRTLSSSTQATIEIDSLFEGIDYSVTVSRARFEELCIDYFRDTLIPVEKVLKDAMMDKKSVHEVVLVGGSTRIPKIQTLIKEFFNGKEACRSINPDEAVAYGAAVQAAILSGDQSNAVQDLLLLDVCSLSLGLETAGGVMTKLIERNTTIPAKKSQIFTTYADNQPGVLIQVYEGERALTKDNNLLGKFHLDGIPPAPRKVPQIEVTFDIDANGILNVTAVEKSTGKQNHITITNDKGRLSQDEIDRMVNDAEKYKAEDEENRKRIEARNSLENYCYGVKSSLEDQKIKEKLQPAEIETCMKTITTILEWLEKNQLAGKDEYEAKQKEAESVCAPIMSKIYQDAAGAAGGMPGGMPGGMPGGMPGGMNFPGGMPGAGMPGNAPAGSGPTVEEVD

These are yes or no findings as the source states them, for the method shown.

Assay [1] concerns the target BSA (UniProt P02769). The assay can be described thus: ELISA; both purified. (In general: In an ELISA, binding on a coated surface is turned into a signal by an enzyme label.)
Assay [2] addresses Plasmodium falciparum Hsp70-1 (Plasmodium falciparum) (UniProt Q8IB24). The assay can be described thus: ELISA; PfHsp70-1 coated on the plate, PfHop as analyte; with 25 uM PES; both purified.
Assay [3] shares this target. The assay can be described thus: ELISA; PfHsp70-1 and PfHop, one coated on the plate, the other as analyte; with 25 uM ATP; both purified.

B1: Plasmodium falciparum Hsp90-Hsp70 organizing protein (protein, UniProt Q8ILC1 1-564)
chain: MVNKEEAQRLKELGNKCFQEGKYEEAVKYFSDAITNDPLDHVLYSNLSGAFASLGRFYEALESANKCISIKKDWPKGYIRKGCAEHGLRQLSNAEKTYLEGLKIDPNNKSLQDALSKVRNENMLENAQLIAHLNNIIENDPQLKSYKEENSNYPHELLNTIKSINSNPMNIRIILSTCHPKISEGVEKFFGFKFTGEGNDAEERQRQQREEEERRKKKEEEERKKKEEEEMKKQNRTPEQIQGDEHKLKGNEFYKQKKFDEALKEYEEAIQINPNDIMYHYNKAAVHIEMKNYDKAVETCLYAIENRYNFKAEFIQVAKLYNRLAISYINMKKYDLAIEAYRKSLVEDNNRATRNALKELERRKEKEEKEAYIDPDKAEEHKNKGNEYFKNNDFPNAKKEYDEAIRRNPNDAKLYSNRAAALTKLIEYPSALEDVMKAIELDPTFVKAYSRKGNLHFFMKDYYKALQAYNKGLELDPNNKECLEGYQRCAFKIDEMSKSEKVDEEQFKKSMADPEIQQIISDPQFQIILQKLNENPNSISEYIKDPKIFNGLQKLIAAGILKVR
Turning to B1, the binding entry in assay [1] was “no binding”; in assay [2], “no binding (condition: with 25 µM PES)”; in assay [3], “no binding (condition: with 25 µM ATP)”.
